According to the supplement of paper PMC10849652:
Some of the results follow.

Protein sequences, listed by entry. Tags and fused reporters are not part of them. Lines headed by an entry give the natural chain unless they say otherwise; changes in a name come on top.
UniProt Q1ED39: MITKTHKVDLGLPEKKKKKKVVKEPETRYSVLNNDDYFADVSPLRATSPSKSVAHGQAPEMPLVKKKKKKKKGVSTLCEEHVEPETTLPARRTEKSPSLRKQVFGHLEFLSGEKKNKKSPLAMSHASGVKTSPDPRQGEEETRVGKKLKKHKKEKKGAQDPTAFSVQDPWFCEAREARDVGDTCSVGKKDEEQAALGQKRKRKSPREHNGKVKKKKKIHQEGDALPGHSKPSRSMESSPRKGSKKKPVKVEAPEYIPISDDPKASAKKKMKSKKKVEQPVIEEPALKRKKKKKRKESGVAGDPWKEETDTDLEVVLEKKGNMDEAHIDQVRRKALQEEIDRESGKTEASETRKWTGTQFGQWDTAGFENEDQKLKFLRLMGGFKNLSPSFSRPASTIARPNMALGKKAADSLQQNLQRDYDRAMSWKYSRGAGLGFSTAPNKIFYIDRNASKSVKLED
UniProt Q13601: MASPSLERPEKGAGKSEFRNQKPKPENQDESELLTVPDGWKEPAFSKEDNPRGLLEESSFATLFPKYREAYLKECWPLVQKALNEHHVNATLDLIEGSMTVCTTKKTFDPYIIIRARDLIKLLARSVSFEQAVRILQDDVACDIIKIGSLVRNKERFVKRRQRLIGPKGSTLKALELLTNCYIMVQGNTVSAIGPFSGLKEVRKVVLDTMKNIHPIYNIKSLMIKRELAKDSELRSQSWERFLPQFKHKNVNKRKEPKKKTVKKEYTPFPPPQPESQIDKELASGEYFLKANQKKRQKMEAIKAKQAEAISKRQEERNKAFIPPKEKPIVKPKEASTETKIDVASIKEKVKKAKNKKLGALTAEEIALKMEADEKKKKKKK
UniProt P28838: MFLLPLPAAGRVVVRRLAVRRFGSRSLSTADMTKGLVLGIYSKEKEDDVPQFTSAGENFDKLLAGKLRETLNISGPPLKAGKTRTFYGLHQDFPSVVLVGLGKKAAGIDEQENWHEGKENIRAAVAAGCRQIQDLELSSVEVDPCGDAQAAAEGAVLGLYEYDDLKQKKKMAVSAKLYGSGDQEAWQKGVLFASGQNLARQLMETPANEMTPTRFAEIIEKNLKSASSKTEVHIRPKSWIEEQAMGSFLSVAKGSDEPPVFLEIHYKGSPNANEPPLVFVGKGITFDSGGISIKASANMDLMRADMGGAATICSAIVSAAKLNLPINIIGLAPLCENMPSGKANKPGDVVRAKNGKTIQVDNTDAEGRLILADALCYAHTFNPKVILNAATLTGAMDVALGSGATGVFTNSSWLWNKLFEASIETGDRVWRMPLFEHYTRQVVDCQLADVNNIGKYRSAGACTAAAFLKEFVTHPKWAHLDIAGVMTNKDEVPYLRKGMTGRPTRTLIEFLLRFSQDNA
UniProt Q8N371: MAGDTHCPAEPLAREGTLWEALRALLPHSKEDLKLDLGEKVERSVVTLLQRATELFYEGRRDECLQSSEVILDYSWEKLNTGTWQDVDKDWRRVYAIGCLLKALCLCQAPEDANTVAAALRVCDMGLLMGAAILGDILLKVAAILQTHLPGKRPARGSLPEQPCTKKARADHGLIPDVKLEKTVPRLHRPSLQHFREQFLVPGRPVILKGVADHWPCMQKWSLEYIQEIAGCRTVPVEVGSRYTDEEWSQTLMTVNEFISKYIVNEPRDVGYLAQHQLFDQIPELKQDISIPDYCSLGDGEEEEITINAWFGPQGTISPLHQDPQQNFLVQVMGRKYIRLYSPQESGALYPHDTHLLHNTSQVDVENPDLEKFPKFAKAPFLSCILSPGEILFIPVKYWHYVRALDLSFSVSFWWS
UniProt Q9Y2Q5, whole entry, looked up: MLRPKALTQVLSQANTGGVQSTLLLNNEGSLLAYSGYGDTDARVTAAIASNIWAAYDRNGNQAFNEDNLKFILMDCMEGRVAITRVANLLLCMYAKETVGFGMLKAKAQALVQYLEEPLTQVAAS
UniProt Q4G0J3: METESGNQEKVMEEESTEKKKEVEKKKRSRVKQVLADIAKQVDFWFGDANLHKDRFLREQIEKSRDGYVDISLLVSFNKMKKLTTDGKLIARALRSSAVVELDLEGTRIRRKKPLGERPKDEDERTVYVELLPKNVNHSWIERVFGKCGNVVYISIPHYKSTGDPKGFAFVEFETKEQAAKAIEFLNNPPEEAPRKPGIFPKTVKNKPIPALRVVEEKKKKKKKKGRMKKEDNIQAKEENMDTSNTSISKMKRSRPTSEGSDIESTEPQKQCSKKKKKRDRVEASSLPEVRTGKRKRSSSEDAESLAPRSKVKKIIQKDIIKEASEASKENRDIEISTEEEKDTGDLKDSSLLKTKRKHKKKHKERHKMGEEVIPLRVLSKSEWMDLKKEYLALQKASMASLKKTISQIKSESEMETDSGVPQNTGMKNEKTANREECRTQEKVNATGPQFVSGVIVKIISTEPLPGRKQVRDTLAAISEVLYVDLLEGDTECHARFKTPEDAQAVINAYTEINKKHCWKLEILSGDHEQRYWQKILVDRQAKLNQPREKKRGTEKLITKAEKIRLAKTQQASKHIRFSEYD
UniProt Q03164, whole entry, looked up: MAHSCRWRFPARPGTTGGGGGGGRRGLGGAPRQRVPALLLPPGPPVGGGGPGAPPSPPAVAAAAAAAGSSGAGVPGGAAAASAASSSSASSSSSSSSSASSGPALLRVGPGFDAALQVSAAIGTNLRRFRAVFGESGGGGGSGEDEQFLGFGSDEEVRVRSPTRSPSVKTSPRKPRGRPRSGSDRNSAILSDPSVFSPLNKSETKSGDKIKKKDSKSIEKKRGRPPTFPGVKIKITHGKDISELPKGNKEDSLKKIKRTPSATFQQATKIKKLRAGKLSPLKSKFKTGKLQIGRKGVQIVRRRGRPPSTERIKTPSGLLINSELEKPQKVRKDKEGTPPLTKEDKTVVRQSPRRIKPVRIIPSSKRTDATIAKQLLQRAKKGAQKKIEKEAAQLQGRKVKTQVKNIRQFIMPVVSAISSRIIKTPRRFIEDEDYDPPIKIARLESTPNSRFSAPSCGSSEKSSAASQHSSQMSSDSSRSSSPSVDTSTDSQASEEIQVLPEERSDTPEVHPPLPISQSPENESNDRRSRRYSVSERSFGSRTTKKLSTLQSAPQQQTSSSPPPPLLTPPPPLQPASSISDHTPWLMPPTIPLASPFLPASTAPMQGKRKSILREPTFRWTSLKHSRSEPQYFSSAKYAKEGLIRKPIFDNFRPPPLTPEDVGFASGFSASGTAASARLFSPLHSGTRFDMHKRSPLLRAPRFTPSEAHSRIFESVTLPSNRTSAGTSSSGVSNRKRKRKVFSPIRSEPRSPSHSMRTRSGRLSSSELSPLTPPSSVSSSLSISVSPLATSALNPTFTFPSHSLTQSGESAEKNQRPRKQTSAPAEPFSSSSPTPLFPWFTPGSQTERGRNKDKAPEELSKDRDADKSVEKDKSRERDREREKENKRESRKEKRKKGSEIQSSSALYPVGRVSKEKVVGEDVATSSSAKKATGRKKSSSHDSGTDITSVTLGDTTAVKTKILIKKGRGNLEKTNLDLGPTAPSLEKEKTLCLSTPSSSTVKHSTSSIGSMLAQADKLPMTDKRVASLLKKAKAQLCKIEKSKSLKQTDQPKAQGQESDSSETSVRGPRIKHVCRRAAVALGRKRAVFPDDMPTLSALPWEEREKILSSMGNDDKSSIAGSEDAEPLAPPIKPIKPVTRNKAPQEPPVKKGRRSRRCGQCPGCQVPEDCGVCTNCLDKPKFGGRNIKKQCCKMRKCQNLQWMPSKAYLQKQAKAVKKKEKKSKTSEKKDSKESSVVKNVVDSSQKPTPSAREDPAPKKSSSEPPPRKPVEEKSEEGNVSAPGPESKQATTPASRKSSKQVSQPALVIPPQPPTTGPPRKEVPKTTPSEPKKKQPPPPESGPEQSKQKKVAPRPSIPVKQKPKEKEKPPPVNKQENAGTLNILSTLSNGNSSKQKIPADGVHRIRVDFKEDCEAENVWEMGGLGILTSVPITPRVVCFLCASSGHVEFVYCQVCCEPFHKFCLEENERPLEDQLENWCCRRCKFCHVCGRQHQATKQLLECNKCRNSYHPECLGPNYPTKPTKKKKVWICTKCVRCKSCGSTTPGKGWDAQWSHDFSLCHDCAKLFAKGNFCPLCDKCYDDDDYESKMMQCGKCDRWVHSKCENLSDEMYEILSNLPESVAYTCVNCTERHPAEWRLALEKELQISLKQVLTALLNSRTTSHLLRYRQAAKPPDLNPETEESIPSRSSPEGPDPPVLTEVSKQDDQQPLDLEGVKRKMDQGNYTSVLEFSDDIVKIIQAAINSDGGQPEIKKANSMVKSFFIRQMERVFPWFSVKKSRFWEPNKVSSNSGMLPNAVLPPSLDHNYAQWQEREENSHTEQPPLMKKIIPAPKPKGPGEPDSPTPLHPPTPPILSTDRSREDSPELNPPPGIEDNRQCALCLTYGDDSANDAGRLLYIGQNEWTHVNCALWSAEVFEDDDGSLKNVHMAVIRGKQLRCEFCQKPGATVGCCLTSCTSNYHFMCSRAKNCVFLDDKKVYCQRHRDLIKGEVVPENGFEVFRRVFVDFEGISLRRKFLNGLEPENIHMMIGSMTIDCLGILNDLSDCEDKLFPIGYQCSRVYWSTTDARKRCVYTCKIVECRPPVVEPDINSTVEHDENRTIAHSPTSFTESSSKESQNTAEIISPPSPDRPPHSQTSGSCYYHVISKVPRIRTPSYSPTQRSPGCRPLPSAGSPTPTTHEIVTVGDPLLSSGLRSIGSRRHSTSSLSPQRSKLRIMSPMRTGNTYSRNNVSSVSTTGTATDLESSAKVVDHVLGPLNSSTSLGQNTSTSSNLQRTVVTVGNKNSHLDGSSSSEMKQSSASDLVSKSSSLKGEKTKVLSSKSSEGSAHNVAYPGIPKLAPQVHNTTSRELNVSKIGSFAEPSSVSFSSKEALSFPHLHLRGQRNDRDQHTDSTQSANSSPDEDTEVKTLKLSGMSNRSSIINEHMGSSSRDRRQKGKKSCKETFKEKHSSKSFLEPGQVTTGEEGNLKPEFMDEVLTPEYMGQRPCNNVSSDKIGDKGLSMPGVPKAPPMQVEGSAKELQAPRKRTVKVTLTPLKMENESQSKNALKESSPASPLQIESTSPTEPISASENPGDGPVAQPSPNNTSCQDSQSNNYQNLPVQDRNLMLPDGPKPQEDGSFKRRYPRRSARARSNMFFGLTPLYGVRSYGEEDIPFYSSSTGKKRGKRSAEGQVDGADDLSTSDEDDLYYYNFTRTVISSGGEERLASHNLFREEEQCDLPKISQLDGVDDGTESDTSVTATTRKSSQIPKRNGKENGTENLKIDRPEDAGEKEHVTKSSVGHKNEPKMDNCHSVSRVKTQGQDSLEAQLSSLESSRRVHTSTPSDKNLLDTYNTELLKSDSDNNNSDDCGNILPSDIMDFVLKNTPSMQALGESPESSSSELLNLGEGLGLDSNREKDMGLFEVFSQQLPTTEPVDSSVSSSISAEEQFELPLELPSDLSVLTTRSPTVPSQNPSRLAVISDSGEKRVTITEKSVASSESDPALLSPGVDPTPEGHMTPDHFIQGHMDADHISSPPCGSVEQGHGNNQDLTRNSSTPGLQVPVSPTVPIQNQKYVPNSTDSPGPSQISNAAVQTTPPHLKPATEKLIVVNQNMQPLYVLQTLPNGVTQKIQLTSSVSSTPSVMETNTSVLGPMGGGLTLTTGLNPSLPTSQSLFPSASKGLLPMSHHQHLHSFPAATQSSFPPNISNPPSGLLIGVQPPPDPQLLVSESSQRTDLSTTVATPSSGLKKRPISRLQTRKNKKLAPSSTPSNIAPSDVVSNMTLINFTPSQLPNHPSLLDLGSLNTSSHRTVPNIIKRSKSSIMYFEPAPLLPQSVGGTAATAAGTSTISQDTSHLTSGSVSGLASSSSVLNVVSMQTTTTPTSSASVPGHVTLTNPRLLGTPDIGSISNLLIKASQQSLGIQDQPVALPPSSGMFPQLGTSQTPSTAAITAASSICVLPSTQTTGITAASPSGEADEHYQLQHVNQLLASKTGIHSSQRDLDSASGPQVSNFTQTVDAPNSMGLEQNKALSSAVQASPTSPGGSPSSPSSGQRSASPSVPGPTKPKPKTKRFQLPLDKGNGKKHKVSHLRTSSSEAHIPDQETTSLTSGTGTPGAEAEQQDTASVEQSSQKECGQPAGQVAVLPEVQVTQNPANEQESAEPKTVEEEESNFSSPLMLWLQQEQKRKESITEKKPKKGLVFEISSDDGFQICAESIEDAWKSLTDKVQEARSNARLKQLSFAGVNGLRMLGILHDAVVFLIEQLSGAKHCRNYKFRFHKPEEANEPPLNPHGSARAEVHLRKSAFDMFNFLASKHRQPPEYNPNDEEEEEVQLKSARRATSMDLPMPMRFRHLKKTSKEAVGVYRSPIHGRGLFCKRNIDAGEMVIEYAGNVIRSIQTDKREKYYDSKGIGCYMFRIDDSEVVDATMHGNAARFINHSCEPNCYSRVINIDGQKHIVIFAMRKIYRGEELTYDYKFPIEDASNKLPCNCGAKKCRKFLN

Key:
Assay in all cases: log2 fold change, soluble protein after heating vs DMSO (PISA); higher = thermal stabilisation; K562 lysate, 10 uM; active = over 0.2 and 3.5 SD of the protein, either way, in both replicates (recomputed)
vemurafenib = compound: CCCS(=O)(=O)Nc1ccc(F)c(C(=O)c2c[nH]c3ncc(-c4ccc(Cl)cc4)cc23)c1F [vemurafenib]
Procedure, shortened: (§1)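 Values give the log-two fold change in thermal stability against solvent controls, from duplicates. Crude K562 extract at 1 mg/mL protein, made by dounce homogenisation in PBS pH 7.4 with 1 mM MgCl2, was treated with 10 μM compound for 30 min. After 3 min heating across 48°C-58°C, aliquots were pooled, adjusted to 0.5% NP-40 at 4°C and centrifuged at 21,000xg for 90 min. The supernatant was measured by TMTpro 16plex LC-MS/MS with channel sums equalised.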

[1] = compound: CCCS(=O)(=O)Nc1ccc(F)c(C(=O)c2c[nH]c3ncc(Cl)cc23)c1F
Procedure, shortened: as §1

barasertib = compound: CCN(CCCOc1ccc2c(Nc3cc(CC(=O)Nc4cccc(F)c4)[nH]n3)ncnc2c1)CCOP(=O)(O)O [barasertib]
Procedure, shortened: as §1

[2] = compound: CC[C@@H]1C(=O)N(C)c2cnc(Nc3ccc(C(=O)NC4CCN(C)CC4)cc3OC)nc2N1C1CCCC1
Procedure, shortened: as §1

volasertib = compound: CC[C@@H]1C(=O)N(C)c2cnc(Nc3ccc(C(=O)N[C@H]4CC[C@H](N5CCN(CC6CC6)CC5)CC4)cc3OC)nc2N1C(C)C [volasertib]
Procedure, shortened: as §1

[3] = compound: CCn1c(C(=O)N(C2CC2)C2CC2)cc2c3c(ncn3C)c(Nc3cc(C)n(C)n3)nc21
Procedure, shortened: as §1

[4] = compound: CCn1cc(-c2ccnc3[nH]c(-c4cccc(CN(C)C)c4)cc23)c(-c2ccc(NC(=O)N(C)C)cc2)n1
Procedure, shortened: as §1

[5] = compound: CN1CCC(CNc2ccc3ncc(-c4cccc(OC(F)(F)F)c4)n3n2)CC1
Procedure, shortened: as §1

saracatinib = compound: CN1CCN(CCOc2cc(OC3CCOCC3)c3c(Nc4c(Cl)ccc5c4OCO5)ncnc3c2)CC1 [saracatinib]
Procedure, shortened: as §1

sotrastaurin = compound: CN1CCN(c2nc(C3=C(c4c[nH]c5ccccc45)C(=O)NC3=O)c3ccccc3n2)CC1 [sotrastaurin]
Procedure, shortened: as §1

| Target | log2 fold change (vemurafenib) | log2 fold change [1] | log2 fold change (barasertib) | log2 fold change [2] | log2 fold change (volasertib) | log2 fold change [3] | log2 fold change [4] | log2 fold change [5] | log2 fold change (saracatinib) | log2 fold change (sotrastaurin) |
| --- | --- | --- | --- | --- | --- | --- | --- | --- | --- | --- |
| LAMB1 (UniProt P07942) | inactive: -0.035 | inactive: 0 | inactive: 0.053 | inactive: 0.021 | inactive: 0.014 | inactive: 0.007 | inactive: 0.049 | inactive: 0.006 | inactive: 0.044 | inactive: 0.022 |
| KNOP1 (UniProt Q1ED39) | inactive: -0.285 | inactive: 0.026 | inactive: -0.014 | inactive: 0.315 | inactive: 0.056 | inactive: -0.161 | inactive: 0.016 | inactive: 0.012 | inactive: -0.029 | inactive: -0.063 |
| KNSTRN (UniProt Q9Y448) | inactive: -0.012 | inactive: 0.021 | inactive: 0.022 | inactive: 0.01 | inactive: 0.004 | inactive: 0.086 | inactive: 0.063 | inactive: -0.095 | inactive: 0.009 | inactive: -0.03 |
| KEL (UniProt P23276) | inactive: 0.01 | inactive: 0.003 | inactive: 0.084 | inactive: 0.055 | inactive: 0.025 | inactive: 0.038 | inactive: -0.035 | inactive: -0.077 | inactive: 0.022 | inactive: 0.016 |
| KRR1 (UniProt Q13601) | inactive: 0.057 | inactive: 0.01 | inactive: 0.026 | inactive: 0.065 | inactive: -0.015 | inactive: 0.023 | inactive: -0.006 | inactive: -0.026 | inactive: 0.003 | inactive: -0.021 |
| LAP3 (UniProt P28838) | inactive: 0.107 | inactive: 0.024 | inactive: -0.002 | inactive: 0.195 | inactive: 0.054 | inactive: -0.095 | active: -0.495 | active: 0.36 | inactive: 0.082 | inactive: 0.042 |
| KDM8 isoform 3 (UniProt Q8N371) | inactive: -0.032 | inactive: 0.004 | inactive: 0.061 | inactive: 0.021 | inactive: -0.01 | inactive: -0.006 | inactive: 0.005 | inactive: 0.046 | inactive: -0.059 | inactive: 0.001 |
| KIF5A (UniProt Q12840) | inactive: 0.013 | inactive: 0.006 | inactive: 0.035 | inactive: -0.016 | inactive: -0.054 | inactive: 0.017 | inactive: 0.027 | inactive: -0.018 | inactive: 0.009 | inactive: 0.024 |
| LAMTOR2 (UniProt Q9Y2Q5) | inactive: -0.018 | inactive: -0.001 | inactive: 0.141 | inactive: 0.006 | inactive: 0.033 | inactive: -0.065 | inactive: -0.003 | inactive: 0.018 | inactive: -0.017 | inactive: 0.04 |
| KPTN (UniProt Q9Y664) | inactive: 0.123 | inactive: 0.03 | inactive: -0.026 | inactive: 0.032 | inactive: -0.023 | inactive: -0.024 | inactive: -0.048 | inactive: 0.057 | inactive: 0.008 | inactive: 0.011 |
| KIDINS220 isoform 2 (UniProt Q9ULH0) | inactive: 0.093 |  |  |  |  |  |  |  |  |  |
| LARP7 isoform 3 (UniProt Q4G0J3) | inactive: 0.011 | inactive: 0.02 | inactive: -0.011 | inactive: -0.019 | inactive: 0.003 | inactive: -0.029 | inactive: -0.002 | inactive: -0.001 | inactive: 0.019 | inactive: -0.007 |
| KLC2 (UniProt Q9H0B6) | inactive: 0.066 | inactive: 0.042 | inactive: 0.042 | inactive: -0.043 | inactive: -0.074 | inactive: -0.009 | inactive: -0.015 | inactive: -0.069 | inactive: 0.008 | inactive: -0.016 |
| LAMTOR4 (UniProt Q0VGL1) | inactive: -0.028 | inactive: 0.015 | inactive: 0.09 | inactive: 0.044 | inactive: 0.029 | inactive: -0.028 | inactive: -0.08 | inactive: 0.053 | inactive: 0.031 | inactive: -0.012 |
| LARS (UniProt Q9P2J5) | inactive: -0.005 | inactive: 0.006 | inactive: 0.006 | inactive: -0.069 | inactive: -0.063 | inactive: 0.045 | inactive: 0.008 | inactive: -0.058 | inactive: -0.023 | inactive: -0.002 |
| KMT2A isoform 3 (UniProt Q03164) | inactive: 0.044 | inactive: -0.033 | inactive: 0.042 | inactive: -0.035 | inactive: -0.054 | inactive: -0.058 | inactive: -0.093 | inactive: -0.01 | inactive: -0.069 | inactive: 0.034 |

Just log2 fold change [5], log2 fold change (volasertib) and log2 fold change [1] (2 entries from above):
Target	log2 fold change [5]	log2 fold change (volasertib)	log2 fold change [1]
KDM8 isoform 3 (UniProt Q8N371)	inactive: 0.046	inactive: -0.01	inactive: 0.004
KIF5A (UniProt Q12840)	inactive: -0.018	inactive: -0.054	inactive: 0.006
